No constants are given. Whether binding was seen depends on the method and setting. A result given as binding can be weak or reduced; the word gives no strength.
Legend:
[1] = molecular target: Upa1-Gfp with block mutation in PAM2L2 (Gal4 DNA-binding domain fusion) (Ustilago maydis); test: two-hybrid; Matchmaker 3, S. cerevisiae AH109; Upa1 versions fused to the Gal4p DNA-binding domain, Rrm4 versions to the activation domain; growth on SD without leucine, tryptophan, histidine and adenine, 28°C, 2 days
[2] = molecular target: Upa1-Gfp with block mutation in PAM2L1 (Gal4 DNA-binding domain fusion) (Ustilago maydis); test: as above

Substance	binding [1]	binding [2]
Rrm4-Kat (Gal4 activation domain fusion) (from UniProt A0A0D1DWZ5 1-792)	binds	binds
Rrm4-M1Δ-Kat (Gal4 activation domain fusion) (from UniProt A0A0D1DWZ5)	binds	binds
Rrm4-M2Δ-Kat (Gal4 activation domain fusion) (from UniProt A0A0D1DWZ5)	binds	binds
Rrm4-M1,2Δ-Kat (Gal4 activation domain fusion) (from UniProt A0A0D1DWZ5)	binds	binds
Rrm4-Kat with deletion of MLLE3^Rrm4 (Gal4 activation domain fusion) (from UniProt A0A0D1DWZ5)	no binding	no binding
